Some of the results follow. The data scatter; read single values as rough.

The chains behind the UniProt entries cited, without tags or fusion partners. Where a name states a change or a piece, a line headed by the entry shows the natural chain unless it says otherwise. Residues count along the entry.
UniProt P63165, whole entry, looked up: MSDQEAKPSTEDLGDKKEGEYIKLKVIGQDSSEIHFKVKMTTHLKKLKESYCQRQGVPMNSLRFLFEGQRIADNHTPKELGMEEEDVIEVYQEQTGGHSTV
UniProt Q658P3: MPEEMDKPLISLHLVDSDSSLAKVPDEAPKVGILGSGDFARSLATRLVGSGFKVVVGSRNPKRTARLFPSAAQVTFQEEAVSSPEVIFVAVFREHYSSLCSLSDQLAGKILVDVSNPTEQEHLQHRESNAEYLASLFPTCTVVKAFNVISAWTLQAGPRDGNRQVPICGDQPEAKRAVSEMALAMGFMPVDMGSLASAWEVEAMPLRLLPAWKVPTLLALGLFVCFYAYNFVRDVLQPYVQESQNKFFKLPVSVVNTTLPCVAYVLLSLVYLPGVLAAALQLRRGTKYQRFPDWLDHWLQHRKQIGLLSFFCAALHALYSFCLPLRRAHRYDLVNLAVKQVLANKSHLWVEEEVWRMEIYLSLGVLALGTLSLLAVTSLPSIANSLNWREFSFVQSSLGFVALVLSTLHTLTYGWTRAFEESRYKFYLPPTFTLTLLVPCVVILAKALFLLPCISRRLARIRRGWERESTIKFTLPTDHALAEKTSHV
UniProt Q9Y2H1: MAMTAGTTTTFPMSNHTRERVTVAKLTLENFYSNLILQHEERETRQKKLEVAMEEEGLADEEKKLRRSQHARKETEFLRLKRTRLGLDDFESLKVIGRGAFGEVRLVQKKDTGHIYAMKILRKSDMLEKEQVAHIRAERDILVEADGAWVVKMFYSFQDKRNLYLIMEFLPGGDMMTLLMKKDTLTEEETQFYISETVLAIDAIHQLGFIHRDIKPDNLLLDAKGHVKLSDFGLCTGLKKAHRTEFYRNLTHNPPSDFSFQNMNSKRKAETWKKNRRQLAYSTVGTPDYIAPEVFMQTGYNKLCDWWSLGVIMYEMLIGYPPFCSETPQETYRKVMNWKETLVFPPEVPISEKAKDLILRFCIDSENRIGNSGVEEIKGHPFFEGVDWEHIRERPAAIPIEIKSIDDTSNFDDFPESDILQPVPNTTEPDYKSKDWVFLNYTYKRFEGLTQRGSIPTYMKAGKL
UniProt Q13586, 31-50: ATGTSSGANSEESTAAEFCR
UniProt Q9P2R7: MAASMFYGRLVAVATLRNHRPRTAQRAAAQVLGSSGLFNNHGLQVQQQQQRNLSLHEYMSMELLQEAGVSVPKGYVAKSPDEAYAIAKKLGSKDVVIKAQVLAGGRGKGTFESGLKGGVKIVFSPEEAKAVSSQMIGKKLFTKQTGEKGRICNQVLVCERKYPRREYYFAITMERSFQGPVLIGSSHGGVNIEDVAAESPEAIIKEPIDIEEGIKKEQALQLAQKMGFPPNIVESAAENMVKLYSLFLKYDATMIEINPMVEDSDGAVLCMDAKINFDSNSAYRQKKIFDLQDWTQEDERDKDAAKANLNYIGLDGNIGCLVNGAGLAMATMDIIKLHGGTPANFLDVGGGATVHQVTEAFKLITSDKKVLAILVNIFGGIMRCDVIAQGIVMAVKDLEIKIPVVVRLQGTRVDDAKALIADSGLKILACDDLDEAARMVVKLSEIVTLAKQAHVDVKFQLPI
UniProt Q76I76, 793-818: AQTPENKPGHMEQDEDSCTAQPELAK
UniProt Q8N2I9: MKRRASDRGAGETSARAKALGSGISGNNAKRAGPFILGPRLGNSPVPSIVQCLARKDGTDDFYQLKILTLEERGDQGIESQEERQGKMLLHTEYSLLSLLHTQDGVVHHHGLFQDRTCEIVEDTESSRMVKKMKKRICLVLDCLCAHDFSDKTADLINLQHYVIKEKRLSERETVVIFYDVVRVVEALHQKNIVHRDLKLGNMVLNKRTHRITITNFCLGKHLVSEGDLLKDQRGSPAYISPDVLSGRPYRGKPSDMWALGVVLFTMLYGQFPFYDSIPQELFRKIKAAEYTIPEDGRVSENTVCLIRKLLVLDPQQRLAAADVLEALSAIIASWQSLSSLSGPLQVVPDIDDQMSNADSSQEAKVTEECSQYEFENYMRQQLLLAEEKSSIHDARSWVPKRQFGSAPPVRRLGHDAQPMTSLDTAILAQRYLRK
UniProt Q13247: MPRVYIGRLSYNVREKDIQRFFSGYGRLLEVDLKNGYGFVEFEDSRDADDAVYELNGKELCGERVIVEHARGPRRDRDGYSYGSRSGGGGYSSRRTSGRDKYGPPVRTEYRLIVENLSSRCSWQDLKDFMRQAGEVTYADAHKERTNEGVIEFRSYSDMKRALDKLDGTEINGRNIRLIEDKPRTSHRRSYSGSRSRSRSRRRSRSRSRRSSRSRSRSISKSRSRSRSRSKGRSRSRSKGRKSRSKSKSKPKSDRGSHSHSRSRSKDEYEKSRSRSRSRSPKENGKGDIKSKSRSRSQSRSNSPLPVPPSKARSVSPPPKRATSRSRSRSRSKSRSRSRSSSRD
UniProt Q96T58: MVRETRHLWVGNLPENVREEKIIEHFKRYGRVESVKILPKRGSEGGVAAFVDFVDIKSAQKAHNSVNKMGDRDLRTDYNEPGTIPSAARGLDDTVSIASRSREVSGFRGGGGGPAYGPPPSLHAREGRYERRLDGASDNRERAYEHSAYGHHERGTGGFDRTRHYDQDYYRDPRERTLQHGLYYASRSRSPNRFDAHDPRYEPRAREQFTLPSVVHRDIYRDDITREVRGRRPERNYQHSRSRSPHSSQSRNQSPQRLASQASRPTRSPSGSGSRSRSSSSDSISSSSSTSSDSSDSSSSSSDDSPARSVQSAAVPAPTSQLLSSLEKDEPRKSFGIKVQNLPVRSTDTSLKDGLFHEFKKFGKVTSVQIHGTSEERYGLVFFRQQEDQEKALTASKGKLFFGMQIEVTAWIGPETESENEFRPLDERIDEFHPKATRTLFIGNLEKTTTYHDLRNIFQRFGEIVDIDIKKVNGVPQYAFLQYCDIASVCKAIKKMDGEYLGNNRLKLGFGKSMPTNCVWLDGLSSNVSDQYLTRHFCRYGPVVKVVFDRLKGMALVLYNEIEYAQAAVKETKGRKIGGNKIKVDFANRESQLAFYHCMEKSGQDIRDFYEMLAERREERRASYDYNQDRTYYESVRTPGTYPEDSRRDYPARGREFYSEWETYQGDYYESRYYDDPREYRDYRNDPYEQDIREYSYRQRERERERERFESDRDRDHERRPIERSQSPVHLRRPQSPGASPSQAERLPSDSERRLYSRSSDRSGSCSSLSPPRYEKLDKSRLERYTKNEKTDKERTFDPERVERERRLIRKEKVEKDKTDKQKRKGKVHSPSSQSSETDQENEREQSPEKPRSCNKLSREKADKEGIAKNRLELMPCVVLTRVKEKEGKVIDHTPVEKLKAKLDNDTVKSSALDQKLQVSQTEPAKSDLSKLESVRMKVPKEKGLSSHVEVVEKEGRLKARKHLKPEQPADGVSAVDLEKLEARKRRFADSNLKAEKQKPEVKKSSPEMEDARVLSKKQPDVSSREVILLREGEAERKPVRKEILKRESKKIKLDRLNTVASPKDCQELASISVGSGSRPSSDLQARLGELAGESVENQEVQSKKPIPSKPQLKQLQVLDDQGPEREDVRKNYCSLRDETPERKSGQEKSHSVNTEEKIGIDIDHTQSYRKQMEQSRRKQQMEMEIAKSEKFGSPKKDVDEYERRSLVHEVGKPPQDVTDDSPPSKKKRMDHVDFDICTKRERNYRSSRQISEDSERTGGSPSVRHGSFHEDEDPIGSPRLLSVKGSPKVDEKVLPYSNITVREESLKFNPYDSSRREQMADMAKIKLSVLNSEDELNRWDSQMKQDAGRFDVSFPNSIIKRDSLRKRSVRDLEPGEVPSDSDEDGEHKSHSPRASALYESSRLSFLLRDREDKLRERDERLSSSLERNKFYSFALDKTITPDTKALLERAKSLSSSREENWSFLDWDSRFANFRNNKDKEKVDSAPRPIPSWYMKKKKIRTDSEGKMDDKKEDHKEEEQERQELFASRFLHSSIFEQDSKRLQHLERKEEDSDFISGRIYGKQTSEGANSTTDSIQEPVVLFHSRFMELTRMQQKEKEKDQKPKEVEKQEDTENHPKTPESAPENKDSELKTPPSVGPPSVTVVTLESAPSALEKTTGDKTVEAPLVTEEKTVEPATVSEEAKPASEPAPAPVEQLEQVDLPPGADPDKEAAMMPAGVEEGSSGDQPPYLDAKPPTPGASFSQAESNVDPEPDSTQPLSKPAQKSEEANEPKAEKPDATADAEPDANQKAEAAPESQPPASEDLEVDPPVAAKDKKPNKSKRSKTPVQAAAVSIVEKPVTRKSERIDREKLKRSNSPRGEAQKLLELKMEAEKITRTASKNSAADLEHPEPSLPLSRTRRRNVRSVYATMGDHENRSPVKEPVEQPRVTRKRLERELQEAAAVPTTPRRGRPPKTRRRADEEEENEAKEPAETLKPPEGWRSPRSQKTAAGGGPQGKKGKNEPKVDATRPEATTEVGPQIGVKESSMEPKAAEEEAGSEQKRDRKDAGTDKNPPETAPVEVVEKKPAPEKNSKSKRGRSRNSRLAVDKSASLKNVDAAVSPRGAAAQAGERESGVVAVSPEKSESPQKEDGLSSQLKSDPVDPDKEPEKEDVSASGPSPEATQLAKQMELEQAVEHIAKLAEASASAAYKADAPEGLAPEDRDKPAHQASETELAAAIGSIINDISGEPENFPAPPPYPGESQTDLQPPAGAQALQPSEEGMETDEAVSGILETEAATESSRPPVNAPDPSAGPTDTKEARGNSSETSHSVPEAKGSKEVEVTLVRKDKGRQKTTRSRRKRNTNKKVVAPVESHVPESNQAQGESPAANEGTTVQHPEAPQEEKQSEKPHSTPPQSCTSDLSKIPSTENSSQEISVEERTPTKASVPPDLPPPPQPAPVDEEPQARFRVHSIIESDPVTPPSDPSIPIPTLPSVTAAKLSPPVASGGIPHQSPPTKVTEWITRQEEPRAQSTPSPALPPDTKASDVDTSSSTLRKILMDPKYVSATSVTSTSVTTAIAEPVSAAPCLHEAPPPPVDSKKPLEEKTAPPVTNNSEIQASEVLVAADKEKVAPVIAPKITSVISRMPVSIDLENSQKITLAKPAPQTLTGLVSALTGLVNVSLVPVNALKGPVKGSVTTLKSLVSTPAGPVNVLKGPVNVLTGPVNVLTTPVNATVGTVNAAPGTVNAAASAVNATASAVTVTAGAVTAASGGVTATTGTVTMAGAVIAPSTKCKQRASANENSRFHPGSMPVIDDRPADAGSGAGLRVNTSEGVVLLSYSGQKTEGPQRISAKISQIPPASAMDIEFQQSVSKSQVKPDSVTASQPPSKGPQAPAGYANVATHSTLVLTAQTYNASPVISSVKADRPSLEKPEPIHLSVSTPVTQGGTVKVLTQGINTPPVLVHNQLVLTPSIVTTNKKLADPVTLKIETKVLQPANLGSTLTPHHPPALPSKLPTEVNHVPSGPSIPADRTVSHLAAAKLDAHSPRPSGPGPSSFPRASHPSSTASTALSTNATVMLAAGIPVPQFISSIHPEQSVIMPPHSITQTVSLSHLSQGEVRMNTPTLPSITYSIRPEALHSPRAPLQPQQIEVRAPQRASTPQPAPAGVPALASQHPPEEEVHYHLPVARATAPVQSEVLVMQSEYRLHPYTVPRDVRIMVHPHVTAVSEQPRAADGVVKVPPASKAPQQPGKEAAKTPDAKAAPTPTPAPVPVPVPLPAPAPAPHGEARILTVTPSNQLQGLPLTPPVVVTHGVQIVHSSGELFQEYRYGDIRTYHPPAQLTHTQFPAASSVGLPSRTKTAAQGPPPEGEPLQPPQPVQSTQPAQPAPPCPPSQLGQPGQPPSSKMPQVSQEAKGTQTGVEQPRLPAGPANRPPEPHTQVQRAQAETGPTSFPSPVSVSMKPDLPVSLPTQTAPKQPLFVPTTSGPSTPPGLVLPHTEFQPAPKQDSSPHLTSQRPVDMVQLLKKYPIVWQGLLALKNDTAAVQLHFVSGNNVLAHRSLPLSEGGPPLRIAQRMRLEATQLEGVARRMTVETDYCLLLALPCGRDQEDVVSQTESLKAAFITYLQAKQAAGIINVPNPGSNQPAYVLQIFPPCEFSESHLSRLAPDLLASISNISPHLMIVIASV
UniProt P61011: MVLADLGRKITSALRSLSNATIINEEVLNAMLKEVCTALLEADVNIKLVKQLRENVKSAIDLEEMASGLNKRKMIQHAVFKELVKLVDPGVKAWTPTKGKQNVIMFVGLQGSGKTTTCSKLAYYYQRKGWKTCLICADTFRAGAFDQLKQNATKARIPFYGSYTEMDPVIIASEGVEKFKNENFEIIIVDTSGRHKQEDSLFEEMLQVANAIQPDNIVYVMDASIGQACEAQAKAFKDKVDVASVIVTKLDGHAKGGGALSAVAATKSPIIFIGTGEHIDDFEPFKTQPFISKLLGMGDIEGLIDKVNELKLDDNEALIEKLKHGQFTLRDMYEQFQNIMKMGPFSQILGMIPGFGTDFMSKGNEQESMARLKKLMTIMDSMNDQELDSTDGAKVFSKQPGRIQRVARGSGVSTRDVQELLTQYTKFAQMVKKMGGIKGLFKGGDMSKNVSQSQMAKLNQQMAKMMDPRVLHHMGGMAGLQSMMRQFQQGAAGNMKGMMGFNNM

Compound in this assay: ClCC(=O)N[C@H]1CCCc2ccccc12
Nature of the assay: log2 mean competition ratio of IA-DTB cysteine labelling (DMSO/compound) (log2 ratio); higher = stronger cysteine engagement by compound. The following applies: 50 µM; treatment time: 4 h; cell line lysate: HEK293T. As for the experimental part:
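IA-DTB competitive cysteine chemoproteomics in HEK293T RIPA lysate. Lysates were treated with compound 29 or 30 at 50 or 200 µM for 4 h, then IA-DTB (500 µM, 1 h), trypsin-digested, NeutrAvidin-enriched and analysed by diaPASEF. Competition ratio = intensity DMSO / intensity compound (n=4 treated, n=64 DMSO); binding: mean log2 CR ≥ 1 and p ≤ 0.05 plus QC filters. Target is the cysteine site.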
For SUMO1 C52 (UniProt P63165), the “log2 mean competition ratio” value turned out to be 0.103.

Regarding STEAP3 C168 (UniProt Q658P3), the “log2 mean competition ratio” value was -0.11.

As for SRR C217 (UniProt Q9GZT4), the “log2 mean competition ratio” value is -0.0825.

For STXBP6 C144 (UniProt Q8NFX7), the “log2 mean competition ratio” value is -0.23.

Turning to STK38L C362 (UniProt Q9Y2H1), the “log2 mean competition ratio” value was -0.412.

For the target STK10 C722 (UniProt O94804), the “log2 mean competition ratio” value came out at 0.226.

Turning to SPTBN2 C2043 (UniProt O15020), the “log2 mean competition ratio” value is -0.0503.

Consider STIM1 C49 (UniProt Q13586), for which the “log2 mean competition ratio” value was -0.167.

Take SUCLA2 C384 (UniProt Q9P2R7): the “log2 mean competition ratio” value was -0.0268.

In the case of SWT1 C127, the “log2 mean competition ratio” value was -0.486.

SSH2 C810 (UniProt Q76I76): the “log2 mean competition ratio” value is -0.22.

Regarding SPRY1 C305 (UniProt O43609), the “log2 mean competition ratio” value stood at 0.249.

On to STARD7 C362 (UniProt Q9NQZ5), for which the “log2 mean competition ratio” value is -0.362.

In the case of SPTAN1 C1930 (UniProt Q13813), the “log2 mean competition ratio” value is -0.38.

Consider STK40 C305 (UniProt Q8N2I9), for which the “log2 mean competition ratio” value was -0.381.

For SRSF6 C121 (UniProt Q13247), the “log2 mean competition ratio” value was 0.155.

In the case of SRGAP1 C603 (UniProt Q7Z6B7), the “log2 mean competition ratio” value is -0.436.

As to SPEN C2398 (UniProt Q96T58), the “log2 mean competition ratio” value is 0.0708.

For the target SUN1 C499 (UniProt O94901), the “log2 mean competition ratio” value is 0.0318.

As for SPDL1 C490 (UniProt Q96EA4), the “log2 mean competition ratio” value was -0.421.

For the target SYMPK C578 (UniProt Q92797), the “log2 mean competition ratio” value was -0.0606.

For SRBD1 C463 (UniProt Q8N5C6), the “log2 mean competition ratio” value is -0.348.

With SYNRG C1194 (UniProt Q9UMZ2), the “log2 mean competition ratio” value is -0.345.

On to SRP54 C36 (UniProt P61011), for which the “log2 mean competition ratio” value is -0.163.

Consider SRBD1 C229 (UniProt Q8N5C6), for which the “log2 mean competition ratio” value is -0.158.

With SYNE3 C51, the “log2 mean competition ratio” value is -0.254.

As for SSX2IP C137 (UniProt Q9Y2D8), the “log2 mean competition ratio” value is -0.328.

Values taken from the supplement of paper PMC11732987, “Enantioselective OTUD7B fragment discovery through chemoproteomics screening and high-throughput optimisation” (Communications Chemistry, 2025).
